Results reported in the supplement of paper PMC10032668.
This is one part of the list. The list holds hits alone, and they repeat only in part.

Sequences of proteins named here, by UniProt entry; tags and fusion partners are left off.
CKS1B, P61024, UniProt P61024, whole entry: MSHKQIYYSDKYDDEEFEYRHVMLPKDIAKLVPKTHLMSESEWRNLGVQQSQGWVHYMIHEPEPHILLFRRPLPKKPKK
RHOA, P61586, UniProt P61586, whole entry: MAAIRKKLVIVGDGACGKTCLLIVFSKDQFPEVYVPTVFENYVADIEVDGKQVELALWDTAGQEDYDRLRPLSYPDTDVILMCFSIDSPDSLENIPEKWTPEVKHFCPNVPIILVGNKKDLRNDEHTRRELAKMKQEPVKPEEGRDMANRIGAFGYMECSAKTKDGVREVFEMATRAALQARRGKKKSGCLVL
TUBB8, Q3ZCM7, UniProt Q3ZCM7, whole entry: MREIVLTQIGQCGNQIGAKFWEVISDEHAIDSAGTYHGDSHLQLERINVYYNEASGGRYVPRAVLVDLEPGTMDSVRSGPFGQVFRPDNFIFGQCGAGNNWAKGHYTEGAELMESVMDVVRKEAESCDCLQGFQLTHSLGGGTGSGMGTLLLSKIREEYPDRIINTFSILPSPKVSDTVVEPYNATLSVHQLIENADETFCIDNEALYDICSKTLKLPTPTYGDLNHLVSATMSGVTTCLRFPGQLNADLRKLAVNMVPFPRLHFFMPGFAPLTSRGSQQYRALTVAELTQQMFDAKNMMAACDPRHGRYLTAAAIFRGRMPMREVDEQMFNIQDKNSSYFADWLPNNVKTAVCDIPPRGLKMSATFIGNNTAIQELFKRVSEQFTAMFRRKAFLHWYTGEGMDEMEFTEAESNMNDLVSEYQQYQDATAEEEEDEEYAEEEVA
CBX2, Q14781, UniProt Q14781, whole entry: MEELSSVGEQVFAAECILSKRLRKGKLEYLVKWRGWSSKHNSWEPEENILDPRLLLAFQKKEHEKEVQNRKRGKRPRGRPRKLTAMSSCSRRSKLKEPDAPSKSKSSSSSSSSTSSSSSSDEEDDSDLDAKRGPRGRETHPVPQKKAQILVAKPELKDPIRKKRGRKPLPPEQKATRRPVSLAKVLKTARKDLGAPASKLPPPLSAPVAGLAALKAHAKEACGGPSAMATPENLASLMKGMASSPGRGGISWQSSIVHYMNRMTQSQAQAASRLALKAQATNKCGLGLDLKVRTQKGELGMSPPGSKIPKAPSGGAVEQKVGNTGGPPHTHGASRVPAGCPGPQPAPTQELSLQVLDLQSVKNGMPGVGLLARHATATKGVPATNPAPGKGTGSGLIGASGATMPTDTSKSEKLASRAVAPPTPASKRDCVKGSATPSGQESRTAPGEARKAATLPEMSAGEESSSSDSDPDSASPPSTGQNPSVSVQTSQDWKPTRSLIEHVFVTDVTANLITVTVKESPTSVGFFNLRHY
CNOT2, Q9NZN8, UniProt Q9NZN8, whole entry: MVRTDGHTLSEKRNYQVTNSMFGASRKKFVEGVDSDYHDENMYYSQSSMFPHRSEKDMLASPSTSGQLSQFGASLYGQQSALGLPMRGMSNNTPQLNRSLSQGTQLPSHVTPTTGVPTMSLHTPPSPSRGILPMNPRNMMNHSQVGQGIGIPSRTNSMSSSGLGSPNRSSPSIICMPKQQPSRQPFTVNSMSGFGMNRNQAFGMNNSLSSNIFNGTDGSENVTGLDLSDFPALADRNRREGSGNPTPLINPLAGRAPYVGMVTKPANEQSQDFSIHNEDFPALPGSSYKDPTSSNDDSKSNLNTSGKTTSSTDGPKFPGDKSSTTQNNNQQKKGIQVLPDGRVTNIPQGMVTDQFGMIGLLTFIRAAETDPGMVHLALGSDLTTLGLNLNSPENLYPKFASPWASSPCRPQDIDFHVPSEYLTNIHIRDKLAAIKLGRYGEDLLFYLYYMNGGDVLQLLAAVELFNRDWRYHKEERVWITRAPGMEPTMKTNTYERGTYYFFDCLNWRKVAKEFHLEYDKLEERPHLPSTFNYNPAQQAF
MYO5A, Q9Y4I1, UniProt Q9Y4I1, whole entry: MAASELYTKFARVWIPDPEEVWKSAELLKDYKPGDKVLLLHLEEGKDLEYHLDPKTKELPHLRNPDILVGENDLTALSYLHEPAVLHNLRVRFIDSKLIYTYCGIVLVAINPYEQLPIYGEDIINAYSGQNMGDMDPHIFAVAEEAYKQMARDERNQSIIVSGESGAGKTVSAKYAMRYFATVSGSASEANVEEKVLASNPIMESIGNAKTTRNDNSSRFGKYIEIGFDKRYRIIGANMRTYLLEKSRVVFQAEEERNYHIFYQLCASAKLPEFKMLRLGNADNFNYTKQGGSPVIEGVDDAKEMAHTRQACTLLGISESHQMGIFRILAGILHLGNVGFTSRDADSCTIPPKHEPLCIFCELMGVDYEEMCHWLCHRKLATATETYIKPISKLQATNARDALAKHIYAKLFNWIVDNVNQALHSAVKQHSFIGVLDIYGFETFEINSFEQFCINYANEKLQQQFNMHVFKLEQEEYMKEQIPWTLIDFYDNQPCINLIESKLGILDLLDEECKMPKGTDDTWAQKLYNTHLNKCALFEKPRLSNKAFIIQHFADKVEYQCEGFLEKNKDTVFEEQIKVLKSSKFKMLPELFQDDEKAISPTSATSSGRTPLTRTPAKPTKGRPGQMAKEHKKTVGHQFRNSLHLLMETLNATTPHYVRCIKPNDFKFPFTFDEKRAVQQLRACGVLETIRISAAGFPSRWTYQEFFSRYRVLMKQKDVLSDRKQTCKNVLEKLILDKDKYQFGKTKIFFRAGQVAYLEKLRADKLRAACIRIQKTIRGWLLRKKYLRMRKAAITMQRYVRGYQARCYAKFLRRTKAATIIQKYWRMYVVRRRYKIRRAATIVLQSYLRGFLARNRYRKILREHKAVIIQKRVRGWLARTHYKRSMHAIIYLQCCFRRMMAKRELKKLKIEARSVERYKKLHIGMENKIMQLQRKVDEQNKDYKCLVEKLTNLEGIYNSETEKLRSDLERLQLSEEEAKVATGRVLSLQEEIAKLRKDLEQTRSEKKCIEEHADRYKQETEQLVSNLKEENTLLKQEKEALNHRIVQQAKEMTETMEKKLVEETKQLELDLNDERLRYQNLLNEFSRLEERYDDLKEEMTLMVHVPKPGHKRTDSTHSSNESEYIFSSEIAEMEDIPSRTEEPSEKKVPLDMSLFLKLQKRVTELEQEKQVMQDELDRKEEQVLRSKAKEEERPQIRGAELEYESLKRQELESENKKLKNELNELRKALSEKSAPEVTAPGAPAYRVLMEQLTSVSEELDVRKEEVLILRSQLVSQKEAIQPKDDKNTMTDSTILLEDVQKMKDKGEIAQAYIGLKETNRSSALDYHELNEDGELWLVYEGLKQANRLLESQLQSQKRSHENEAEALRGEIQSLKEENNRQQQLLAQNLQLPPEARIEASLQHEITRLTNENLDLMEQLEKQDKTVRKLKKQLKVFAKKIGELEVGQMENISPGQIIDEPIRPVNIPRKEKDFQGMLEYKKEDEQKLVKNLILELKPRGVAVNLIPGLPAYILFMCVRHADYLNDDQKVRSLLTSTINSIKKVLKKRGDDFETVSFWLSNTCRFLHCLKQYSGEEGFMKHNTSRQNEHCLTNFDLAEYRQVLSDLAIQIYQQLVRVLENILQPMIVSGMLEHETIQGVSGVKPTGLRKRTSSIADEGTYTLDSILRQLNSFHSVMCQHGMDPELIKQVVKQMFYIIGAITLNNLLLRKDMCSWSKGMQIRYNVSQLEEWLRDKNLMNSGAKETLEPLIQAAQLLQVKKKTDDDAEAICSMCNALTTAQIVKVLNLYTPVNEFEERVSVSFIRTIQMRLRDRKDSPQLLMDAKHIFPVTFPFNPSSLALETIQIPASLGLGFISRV
PPP2R1B, P30154, UniProt P30154, whole entry: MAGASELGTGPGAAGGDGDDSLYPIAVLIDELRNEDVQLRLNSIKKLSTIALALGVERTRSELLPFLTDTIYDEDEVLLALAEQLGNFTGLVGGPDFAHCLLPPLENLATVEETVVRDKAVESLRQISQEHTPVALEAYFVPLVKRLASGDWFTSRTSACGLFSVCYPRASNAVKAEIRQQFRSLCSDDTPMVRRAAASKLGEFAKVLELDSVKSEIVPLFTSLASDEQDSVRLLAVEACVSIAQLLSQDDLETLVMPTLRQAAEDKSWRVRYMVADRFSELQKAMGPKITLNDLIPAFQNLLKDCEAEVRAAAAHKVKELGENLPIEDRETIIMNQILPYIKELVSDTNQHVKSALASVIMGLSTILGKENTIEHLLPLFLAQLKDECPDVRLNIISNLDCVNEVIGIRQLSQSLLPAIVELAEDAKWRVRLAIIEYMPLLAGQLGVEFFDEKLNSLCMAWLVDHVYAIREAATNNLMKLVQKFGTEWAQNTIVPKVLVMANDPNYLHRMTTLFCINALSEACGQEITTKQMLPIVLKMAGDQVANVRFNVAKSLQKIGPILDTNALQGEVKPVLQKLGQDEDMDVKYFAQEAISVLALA
SNRPC, P09234, UniProt P09234, whole entry: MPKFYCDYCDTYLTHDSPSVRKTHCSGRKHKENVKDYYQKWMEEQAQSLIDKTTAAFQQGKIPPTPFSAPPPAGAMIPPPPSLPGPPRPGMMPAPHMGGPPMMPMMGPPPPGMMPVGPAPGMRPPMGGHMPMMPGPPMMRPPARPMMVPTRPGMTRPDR
SRPK1, Q96SB4, UniProt Q96SB4, whole entry: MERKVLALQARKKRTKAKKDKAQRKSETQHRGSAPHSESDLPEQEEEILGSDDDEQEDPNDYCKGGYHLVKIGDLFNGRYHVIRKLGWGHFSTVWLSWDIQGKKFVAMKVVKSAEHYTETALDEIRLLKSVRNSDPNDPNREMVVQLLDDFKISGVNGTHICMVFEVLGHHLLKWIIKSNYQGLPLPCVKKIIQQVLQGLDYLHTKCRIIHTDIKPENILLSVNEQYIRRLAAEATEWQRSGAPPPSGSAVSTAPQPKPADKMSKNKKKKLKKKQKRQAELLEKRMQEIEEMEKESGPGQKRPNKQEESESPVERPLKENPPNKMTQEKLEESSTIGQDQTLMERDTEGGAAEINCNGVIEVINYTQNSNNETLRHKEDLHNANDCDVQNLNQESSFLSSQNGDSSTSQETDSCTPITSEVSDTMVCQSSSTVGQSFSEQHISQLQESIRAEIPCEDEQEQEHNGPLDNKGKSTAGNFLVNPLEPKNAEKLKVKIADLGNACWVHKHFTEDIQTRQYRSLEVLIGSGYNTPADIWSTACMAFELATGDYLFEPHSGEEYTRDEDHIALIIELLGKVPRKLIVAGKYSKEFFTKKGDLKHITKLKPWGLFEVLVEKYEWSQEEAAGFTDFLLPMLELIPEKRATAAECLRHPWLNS

Tests used:
Assay in all cases: PRISMA enrichment of interactor (LFQ) in peptide spot vs all other peptide spots (log2 fold change); higher = stronger / more specific binding of the interactor to the peptide
ALDH9A1, P49189 = biological target: ALDH9A1, P49189
Method: (§1)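 PRISMA: 15-aa overlapping tiles (offset 8 aa) of 60 microproteins, plus SOS1/GLUT1 control peptides, were spot-synthesized on cellulose membranes in triplicate. Membranes were incubated with benzonase-treated HEK293T lysate, and bound proteins were identified by LC-MS/MS with LFQ. Enrichment is the log2 fold change of each protein in one spot versus all other spots. Only interactors passing the significance cutoff are listed.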

CKS1B, P61024 = biological target: CKS1B, P61024
Method: as §1

MSI1, O43347 = biological target: MSI1, O43347
Method: as §1

PRRC2C, Q9Y520 = biological target: PRRC2C, Q9Y520
Method: as §1

PTGES3, Q15185 = biological target: PTGES3, Q15185
Method: as §1

RBM38, Q9H0Z9 = biological target: RBM38, Q9H0Z9
Method: as §1

RHOA, P61586 = biological target: RHOA, P61586
Method: as §1

TUBB8, Q3ZCM7 = biological target: TUBB8, Q3ZCM7
Method: as §1

ZNF317, Q96PQ6 = biological target: ZNF317, Q96PQ6
Method: as §1

AMMECR1, Q9Y4X0 = biological target: AMMECR1, Q9Y4X0
Method: as §1

BPTF, Q12830 = biological target: BPTF, Q12830
Method: as §1

CALM3, P0DP23 = biological target: CALM3, P0DP23
Method: as §1

CBX2, Q14781 = biological target: CBX2, Q14781
Method: as §1

CNOT2, Q9NZN8 = biological target: CNOT2, Q9NZN8
Method: as §1

COPG2, Q9UBF2 = biological target: COPG2, Q9UBF2
Method: as §1

COPS4, Q9BT78 = biological target: COPS4, Q9BT78
Method: as §1

DNAJB4, Q9UDY4 = biological target: DNAJB4, Q9UDY4
Method: as §1

EMG1, Q92979 = biological target: EMG1, Q92979
Method: as §1

FMR1, Q06787 = biological target: FMR1, Q06787
Method: as §1

IWS1, Q96ST2 = biological target: IWS1, Q96ST2
Method: as §1

LIN7C, Q9NUP9 = biological target: LIN7C, Q9NUP9
Method: as §1

MRPL27, Q9P0M9 = biological target: MRPL27, Q9P0M9
Method: as §1

MRPS25, P82663 = biological target: MRPS25, P82663
Method: as §1

MYO5A, Q9Y4I1 = biological target: MYO5A, Q9Y4I1
Method: as §1

NCOA5, Q9HCD5 = biological target: NCOA5, Q9HCD5
Method: as §1

PCLAF, Q15004 = biological target: PCLAF, Q15004
Method: as §1

PDIA4, P13667 = biological target: PDIA4, P13667
Method: as §1

PGD, P52209 = biological target: PGD, P52209
Method: as §1

PJA2, O43164 = biological target: PJA2, O43164
Method: as §1

POLA1, P09884 = biological target: POLA1, P09884
Method: as §1

PPP2R1B, P30154 = biological target: PPP2R1B, P30154
Method: as §1

PRIM1, P49642 = biological target: PRIM1, P49642
Method: as §1

PSMD4, P55036 = biological target: PSMD4, P55036
Method: as §1

PUS1, Q9Y606 = biological target: PUS1, Q9Y606
Method: as §1

RAB2A, P61019 = biological target: RAB2A, P61019
Method: as §1

SNRPC, P09234 = biological target: SNRPC, P09234
Method: as §1

SRPK1, Q96SB4 = biological target: SRPK1, Q96SB4
Method: as §1

STMN3, Q9NZ72 = biological target: STMN3, Q9NZ72
Method: as §1

TARS, P26639 = biological target: TARS, P26639
Method: as §1

TMEM41A, Q96HV5 = biological target: TMEM41A, Q96HV5
Method: as §1

TRA2A, Q13595 = biological target: TRA2A, Q13595
Method: as §1

TRA2B, P62995 = biological target: TRA2B, P62995
Method: as §1

UBAC2, Q8NBM4 = biological target: UBAC2, Q8NBM4
Method: as §1

YWHAG, P61981 = biological target: YWHAG, P61981
Method: as §1

B1: RP3-332B22.1 (peptide)
chain: IESRSYMFSPSRAFR
ALDH9A1, P49189
  PRISMA enrichment of interactor (log2): 6.98
CKS1B, P61024
  PRISMA enrichment of interactor (log2): 4.23
MSI1, O43347
  PRISMA enrichment of interactor (log2): 6.95
PRRC2C, Q9Y520
  PRISMA enrichment of interactor (log2): 4.64
PTGES3, Q15185
  PRISMA enrichment of interactor (log2): 4.98
RBM38, Q9H0Z9
  PRISMA enrichment of interactor (log2): 6.63
RHOA, P61586
  PRISMA enrichment of interactor (log2): 4.53
TUBB8, Q3ZCM7
  PRISMA enrichment of interactor (log2): 4.24
ZNF317, Q96PQ6
  PRISMA enrichment of interactor (log2): 4.03

B2: RP11-432J24.5_2 (peptide)
chain: WINVSTWASWVSRTS
ALDH9A1, P49189
  PRISMA enrichment of interactor (log2): 5.81
AMMECR1, Q9Y4X0
  PRISMA enrichment of interactor (log2): 5.62
BPTF, Q12830
  PRISMA enrichment of interactor (log2): 3.95
CALM3, P0DP23
  PRISMA enrichment of interactor (log2): 4.89
CBX2, Q14781
  PRISMA enrichment of interactor (log2): 5.64
CNOT2, Q9NZN8
  PRISMA enrichment of interactor (log2): 5.86
COPG2, Q9UBF2
  PRISMA enrichment of interactor (log2): 4
COPS4, Q9BT78
  PRISMA enrichment of interactor (log2): 4.28
DNAJB4, Q9UDY4
  PRISMA enrichment of interactor (log2): 7.33
EMG1, Q92979
  PRISMA enrichment of interactor (log2): 5.7
FMR1, Q06787
  PRISMA enrichment of interactor (log2): 4.34
IWS1, Q96ST2
  PRISMA enrichment of interactor (log2): 7.07
LIN7C, Q9NUP9
  PRISMA enrichment of interactor (log2): 4.4
MRPL27, Q9P0M9
  PRISMA enrichment of interactor (log2): 9.16
MRPS25, P82663
  PRISMA enrichment of interactor (log2): 4.45
MYO5A, Q9Y4I1
  PRISMA enrichment of interactor (log2): 6.54
NCOA5, Q9HCD5
  PRISMA enrichment of interactor (log2): 4.07
PCLAF, Q15004
  PRISMA enrichment of interactor (log2): 4.98
PDIA4, P13667
  PRISMA enrichment of interactor (log2): 5.36
PGD, P52209
  PRISMA enrichment of interactor (log2): 6.48
PJA2, O43164
  PRISMA enrichment of interactor (log2): 4.29
POLA1, P09884
  PRISMA enrichment of interactor (log2): 4.75
PPP2R1B, P30154
  PRISMA enrichment of interactor (log2): 4.02
PRIM1, P49642
  PRISMA enrichment of interactor (log2): 6.4
PSMD4, P55036
  PRISMA enrichment of interactor (log2): 5.8
PUS1, Q9Y606
  PRISMA enrichment of interactor (log2): 4.42
RAB2A, P61019
  PRISMA enrichment of interactor (log2): 4.23
SNRPC, P09234
  PRISMA enrichment of interactor (log2): 5.59
SRPK1, Q96SB4
  PRISMA enrichment of interactor (log2): 5.54
STMN3, Q9NZ72
  PRISMA enrichment of interactor (log2): 3.94
TARS, P26639
  PRISMA enrichment of interactor (log2): 6.05
TMEM41A, Q96HV5
  PRISMA enrichment of interactor (log2): 4.45
TRA2A, Q13595
  PRISMA enrichment of interactor (log2): 4.54
TRA2B, P62995
  PRISMA enrichment of interactor (log2): 5.61
UBAC2, Q8NBM4
  PRISMA enrichment of interactor (log2): 4.19
YWHAG, P61981
  PRISMA enrichment of interactor (log2): 5.05
